Results from patent publication US9017956B2, “Use of the genes in the Hog, Ras and cAMP pathway for treatment of fungal infection” (Nutrex Technology Co., Ltd., priority 2009, dated 2015).
Entries after “also recorded” stand apart in the source; their conditions may differ. For at least one compound, name, drawing or mass did not settle the structure.

Tested on: C. neoformans serotype A H99 strain and its deletion mutants
Experiment: Antifungal drug sensitivity test: serially diluted cells spotted on YPD agar containing the drug
Assay type: cell-based, Cryptococcus neoformans
Protocol: Each strain was incubated overnight at 30° C. in YPD medium, washed, serially diluted (1 to 10^4 dilutions) in dH2O, and spotted (3 μl) onto solid YPD medium containing indicated concentrations of stress-inducing agents or antifungal drugs as previously described in “Bahn Y S, Kojima K, Cox G M, Heitman J (2005) Mol Biol Cell 16: 2285-2300.” and “Bahn Y S, Kojima K, Cox G M, Heitman J (2006) Mol Biol Cell 17: 3122-3135”. To examine antifungal drug sensitivity, the cells were spotted on agar-solid YPD media containing amphotericin B (Sigma), fluconazole (Sigma), itraconazole (Sigma), ketoconazole (Sigma) and fludioxonil. Then spotted cells were incubated at 30° C. for 2-4 days and photographed.

`CCC(C)n1ncn(-c2ccc(N3CCN(c4ccc(OCC5COC(Cn6cncn6)(c6ccc(Cl)cc6Cl)O5)cc4)CC3)cc2)c1=O` (stereo not shown) [itraconazole] was tested, and the “drug sensitivity of aca1Δ mutant compared to WT” value (aca1Δ, H99 background) was “increased sensitivity”, the “drug sensitivity of cac1Δ mutant compared to WT” value (cac1Δ, H99 background) was “increased sensitivity” and the “drug sensitivity of gpa1Δ mutant compared to WT” value (gpa1Δ, H99 background) was “increased sensitivity”. The “drug sensitivity of hog1Δ cac1Δ double mutant” value (hog1Δ cac1Δ, compared to single mutants) was “hypersensitivity; also recorded: hypersensitive”, the “drug sensitivity of hog1Δ mutant compared to WT” value (hog1Δ, H99 background, YPD agar, 30° C., 72 h) was “but not to itraconazole” and the “drug sensitivity of pbs2Δ mutant compared to WT” value (pbs2Δ, H99 background, YPD agar, 30° C., 72 h) was “but not to itraconazole”. The “drug sensitivity of pka1Δ mutant compared to WT” value (pka1Δ, H99 background) was “increased sensitivity”, the “drug sensitivity of ras1Δ mutant compared to WT” value (ras1Δ, H99 background) was “increased sensitivity” and the “drug sensitivity of ssk1Δ mutant compared to WT” value (ssk1Δ, H99 background, YPD agar, 30° C., 72 h) was “but not to itraconazole”. The “drug sensitivity of ssk2Δ mutant compared to WT” value (ssk2Δ, H99 background, YPD agar, 30° C., 72 h) was “but not to itraconazole”.
